How the values were obtained:
HUVEC cells = assay: Endothelial cell proliferation assay (CCK-8); format: cell-based; details: Homo sapiens, 18 hours exposure, CCK-8 assay, n = 9
Procedure: Anti-angiogenic drugs were screened in a concentration gradient in the HUVEC culture assay. […] Cell proliferation was assessed using a CCK-8 assay (Dojindo). Statistical analysis by two-way Anova. Error represents the standard error of the mean.
HUVEC cells were purchased from ATCC (Manassas, VA) and cultured as previously described. No further authentication was performed. Cells were seeded at 6.5 × 10^4 cells per well in 100 μL of medium per well. Drugs were diluted in prewarmed DMEM. Serial dilutions were performed from 1000–0.1 nM. The cells were left to grow for 18 hours with exposure to vehicle control (DMSO) or drugs. Experiments were done in triplicate each time. Cellular proliferation was assessed using a CCK-8 assay (Dojindo, Rockville, MD). All plates were read at 450 nm.

[1] = system: fli1:EGFP zebrafish embryos; assay: fli1:EGFP zebrafish embryo exposure: survival and intersegmental vessel development; format: in vivo; details: concentration gradient, within 24 hours of drug exposure
Procedure: We then examined the extent and nature of the anti-angiogenic effects of the compounds using transgenic fli1:EGFP zebrafish embryos. The vasculature of these fish is tagged with EGFP and the transparency of the zebrafish allows for visualization of the forming blood vessels and any effect of anti-cancer drugs on their development over time (Fig. 4). A known anti-angiogenic and teratogenic compound (CPS49) was screened alongside the drugs as a positive control at 10 μg/mL (30 μM), a previously established anti-angiogenic concentration.
fli1:EGFP zebrafish were obtained from the Zebrafish international Resource Centre[29] and maintained in an approved aquarium habitat at 28 °C. At 24 hours post fertilization (hpf) the embryos were checked for GFP expression using a fluorescent microscope and manually dechorionated with forceps, exposed to either a vehicle control, or an anti-angiogenic anti-cancer compound (at 24 hpf) for 24 hours and imaged at 48 hpf. At this point the embryos were anaesthetized in 0.1% tricaine and the length and number of intersegmental vessels (ISV) were quantified as previously described. A minimum of 10 embryos were screened per drug, per concentration, and experiments were performed in triplicate.

CNC(=O)c1ccccc1Sc1ccc2c(/C=C/c3ccccn3)n[nH]c2c1 [Axitinib, axitinib]
IC50 (HUVEC cells): < 0.5 nM | relative potency in reducing vessel outgrowth [1]: most potent
